Results from patent publication US9907307B2, “Aromatic compound and uses thereof” (SUMITOMO CHEMICAL COMPANY, LIMITED, priority 2014, dated 2018).
Some of these results come from one statement about several compounds together.

Legend:
Type in all cases: in vivo
[1] = test system: barley net blotch fungus (Pyrenophora teres); assay: Barley net blotch foliar spray test on barley (Test Example 4); conditions: 200 ppm foliar spray, barley (NISHINOHOSHI), inoculated 2 days after spraying
[2] = test system: cucumber anthracnose fungus (Colletotrichum lagenarium); assay: Cucumber anthracnose foliar spray test (Test Example 9); conditions: 200 ppm foliar spray, cucumber (SAGAMI HANJIRO), inoculated one day after spraying
[3] = test system: kidney bean stem rot fungus (Sclerotinia sclerotiorum); assay: Kidney bean stem rot foliar spray test (Test Example 5); conditions: 500 ppm foliar spray, kidney bean (NAGAUZURA SAITOU), four days after inoculation
[4] = test system: cotton aphid (Aphis gossypii); assay: Cotton aphid spray test on cucumber (Test Example 10); conditions: 500 ppm active ingredient (formulation per Formulation Example 2), 20 mL sprayed on cucumber, counted after 6 days
[5] = test system: wheat leaf blotch fungus (Septoria tritici); assay: Wheat leaf blotch foliar spray test on wheat (Test Example 6); conditions: 500 ppm foliar spray, wheat (APOGEE), inoculated 4 days after spraying

CCOC(=O)C(=O)c1ccccc1COc1ccc(-c2cc(Cl)n(C)n2)cc1C [present compound 1]
area of lesion relative to that on an untreated plant [1]: ≤ 30%

COC(=O)Nc1cccc(C)c1COc1ccc(-c2cc(Cl)n(C)n2)cc1C [present compound 2]
area of lesion relative to that on an untreated plant [2]: ≤ 30% | area of lesion relative to that on an untreated plant [3]: ≤ 30% | control value [4]: ≥ 90% | area of lesion relative to that on an untreated plant [5]: ≤ 30%
